The source of these data is US20150094353.

Sequences of proteins named here, by UniProt entry; tags and fusion partners are left off. Residues count along the entry.
UniProt P42224, 2-750: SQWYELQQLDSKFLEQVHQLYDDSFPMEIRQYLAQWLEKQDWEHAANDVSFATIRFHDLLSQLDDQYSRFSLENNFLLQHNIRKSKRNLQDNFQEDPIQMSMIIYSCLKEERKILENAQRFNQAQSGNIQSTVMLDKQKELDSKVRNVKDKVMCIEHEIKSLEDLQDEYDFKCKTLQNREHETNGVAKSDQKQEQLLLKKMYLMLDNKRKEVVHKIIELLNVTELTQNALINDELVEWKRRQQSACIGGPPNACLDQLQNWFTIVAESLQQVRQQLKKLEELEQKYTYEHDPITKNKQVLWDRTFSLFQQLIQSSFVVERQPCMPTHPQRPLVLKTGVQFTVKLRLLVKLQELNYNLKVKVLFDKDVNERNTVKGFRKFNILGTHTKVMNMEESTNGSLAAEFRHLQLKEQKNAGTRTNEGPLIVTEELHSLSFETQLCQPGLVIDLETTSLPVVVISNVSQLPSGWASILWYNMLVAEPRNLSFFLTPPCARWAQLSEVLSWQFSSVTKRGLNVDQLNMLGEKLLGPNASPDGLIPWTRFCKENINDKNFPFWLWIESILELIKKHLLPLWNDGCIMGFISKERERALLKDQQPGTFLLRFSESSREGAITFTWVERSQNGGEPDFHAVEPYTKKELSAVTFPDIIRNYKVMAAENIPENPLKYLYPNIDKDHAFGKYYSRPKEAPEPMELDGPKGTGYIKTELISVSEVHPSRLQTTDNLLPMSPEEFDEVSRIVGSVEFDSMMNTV
UniProt P40763, 2-770: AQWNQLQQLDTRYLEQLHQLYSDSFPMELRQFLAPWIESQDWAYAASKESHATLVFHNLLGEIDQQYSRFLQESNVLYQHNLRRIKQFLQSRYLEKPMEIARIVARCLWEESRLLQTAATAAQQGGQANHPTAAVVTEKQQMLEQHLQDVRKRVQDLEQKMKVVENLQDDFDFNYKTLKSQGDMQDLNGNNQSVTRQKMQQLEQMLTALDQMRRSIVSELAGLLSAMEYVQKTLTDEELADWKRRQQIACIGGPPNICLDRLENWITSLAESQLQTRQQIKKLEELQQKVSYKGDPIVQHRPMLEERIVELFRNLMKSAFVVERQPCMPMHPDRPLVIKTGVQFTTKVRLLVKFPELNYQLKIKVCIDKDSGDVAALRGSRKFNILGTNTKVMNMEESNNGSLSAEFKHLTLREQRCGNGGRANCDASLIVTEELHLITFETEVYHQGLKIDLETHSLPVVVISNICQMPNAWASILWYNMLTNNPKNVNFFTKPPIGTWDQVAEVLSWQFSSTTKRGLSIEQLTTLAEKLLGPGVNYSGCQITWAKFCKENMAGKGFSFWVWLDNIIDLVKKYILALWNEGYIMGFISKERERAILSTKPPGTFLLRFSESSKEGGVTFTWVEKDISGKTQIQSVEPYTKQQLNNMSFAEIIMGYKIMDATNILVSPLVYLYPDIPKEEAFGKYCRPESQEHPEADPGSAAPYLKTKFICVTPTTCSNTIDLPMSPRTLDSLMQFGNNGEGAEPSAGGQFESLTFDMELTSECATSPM

At least one result comes from cells or an extract, where the contact may be indirect.

One data set addresses STAT1 (UniProt P42224). As to the kind of experiment: EMSA. To be noted: STAT1 antibody interference and cold competition; 10 mM HEPES pH 7.9, 50 mM KCl, RT; not affected by inS3-54 up to 300 uM; protein in a lysate after overexpression; label: 32P. A general note: In EMSA bound probe runs differently from free probe, usually more slowly.
The next data set has as its target STAT3 (human) (UniProt P40763). As to the kind of experiment: EMSA. To be noted: supershift with STAT3 antibody and 100-fold cold probe competition; 10 mM HEPES pH 7.9, 50 mM KCl, poly(dI-dC), RT; binding inhibited by inS3-54 with IC50 about 20 uM; protein in a lysate after overexpression; protein details: FLAG, transiently expressed in H1299 cells; label: 32P.

Turning to “AGCTTCATTTCCCGTAAATCCCTA (double strand) [SIE probe]”, the binding result with STAT1 and with STAT3 (human) was “binds” in each case.
